From article PMC5931107, “Clinical pharmacodynamic/exposure characterisation of the multikinase inhibitor ilorasertib (ABT-348) in a phase 1 dose-escalation trial” (British Journal of Cancer, 2018)
Entries after “also recorded” stand apart in the source; their conditions may differ.

Assays:
Format in all cases: in vivo, human
[1] = system: Aurora kinase B; assay: pHH3 immunohistochemistry in skin punch biopsies; settings: exposure quintiles
[2] = system: VEGFR2; assay: Diastolic blood pressure change from baseline (VEGFR2 inhibition biomarker); settings: quintiles of exposure (Cmax)
[3] = system: VEGFR2; assay: Plasma PlGF change from baseline (VEGFR2 inhibition biomarker); settings: quintiles of exposure (Cmax)

## Nc1ncc(-c2cnn(CCO)c2)c2scc(-c3ccc(NC(=O)Nc4cccc(F)c4)cc3)c12 [ilorasertib, Ilorasertib]
[1]
  Exposure at maximum pHH3 inhibition: at the highest exposure; also recorded: only in the two highest quintiles
[2]
  Exposure at peak change in DBP: second quintile of exposure; also recorded: second plasma exposure quintile
[3]
  Exposure at peak change in PlGF: second quintile of exposure; also recorded: second plasma exposure quintile
